No constants are given. Whether binding was seen depends on the method and setting. Binding can be weak; no strength is given. For some assays here: Binding seen in cells or lysates may run through a third protein.
Key:
[1] = target: Chaetomium thermophilum CCDC47 with a FLAG tag (Chaetomium thermophilum) (UniProt G0S5M5); test: co-IP; FLAG-IP of ctCCDC47-FLAG on anti-FLAG M2 affinity gel from membranes solubilised in 1.5% digitonin, eluted with 3xFLAG peptide; Coomassie staining and western blotting
[2] = target: Chaetomium thermophilum CCDC47 with a FLAG tag (Chaetomium thermophilum) (UniProt G0S5M5); test: cryo-EM structure; single-particle cryo-EM of the ribosome-bound SND3 translocon purified natively by FLAG-IP of ctCCDC47-FLAG and ribosome pelleting, in 0.25% digitonin; overall 2.2 Å, 3-6 Å in the micelle

Protein sequences, listed by entry. Tags and fused reporters are not part of them. Lines headed by an entry give the natural chain unless they say otherwise; changes in a name come on top.
UniProt G0S5M5: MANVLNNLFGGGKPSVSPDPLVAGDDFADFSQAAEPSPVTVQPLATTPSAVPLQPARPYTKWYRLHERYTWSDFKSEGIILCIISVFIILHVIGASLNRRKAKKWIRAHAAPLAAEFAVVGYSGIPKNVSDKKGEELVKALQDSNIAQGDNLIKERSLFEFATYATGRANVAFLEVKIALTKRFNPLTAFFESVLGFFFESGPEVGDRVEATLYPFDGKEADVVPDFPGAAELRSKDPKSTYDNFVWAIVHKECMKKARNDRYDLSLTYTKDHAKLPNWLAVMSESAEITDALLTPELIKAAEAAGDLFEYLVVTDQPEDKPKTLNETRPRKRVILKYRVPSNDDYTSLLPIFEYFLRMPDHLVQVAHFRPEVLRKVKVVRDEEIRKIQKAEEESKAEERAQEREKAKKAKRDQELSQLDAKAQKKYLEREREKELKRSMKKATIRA

In the case of “Chaetomium thermophilum SND3 with a C-terminal TwinStrep tag (from UniProt G0RYQ7)”, the binding [1] is reported as “binds” and the binding [2] is reported as “binds”.
